These results are taken from US20040086503A1.

Protein sequences, listed by entry. Tags and fused reporters are not part of them. Lines headed by an entry give the natural chain unless they say otherwise; changes in a name come on top.
UniProt P08069: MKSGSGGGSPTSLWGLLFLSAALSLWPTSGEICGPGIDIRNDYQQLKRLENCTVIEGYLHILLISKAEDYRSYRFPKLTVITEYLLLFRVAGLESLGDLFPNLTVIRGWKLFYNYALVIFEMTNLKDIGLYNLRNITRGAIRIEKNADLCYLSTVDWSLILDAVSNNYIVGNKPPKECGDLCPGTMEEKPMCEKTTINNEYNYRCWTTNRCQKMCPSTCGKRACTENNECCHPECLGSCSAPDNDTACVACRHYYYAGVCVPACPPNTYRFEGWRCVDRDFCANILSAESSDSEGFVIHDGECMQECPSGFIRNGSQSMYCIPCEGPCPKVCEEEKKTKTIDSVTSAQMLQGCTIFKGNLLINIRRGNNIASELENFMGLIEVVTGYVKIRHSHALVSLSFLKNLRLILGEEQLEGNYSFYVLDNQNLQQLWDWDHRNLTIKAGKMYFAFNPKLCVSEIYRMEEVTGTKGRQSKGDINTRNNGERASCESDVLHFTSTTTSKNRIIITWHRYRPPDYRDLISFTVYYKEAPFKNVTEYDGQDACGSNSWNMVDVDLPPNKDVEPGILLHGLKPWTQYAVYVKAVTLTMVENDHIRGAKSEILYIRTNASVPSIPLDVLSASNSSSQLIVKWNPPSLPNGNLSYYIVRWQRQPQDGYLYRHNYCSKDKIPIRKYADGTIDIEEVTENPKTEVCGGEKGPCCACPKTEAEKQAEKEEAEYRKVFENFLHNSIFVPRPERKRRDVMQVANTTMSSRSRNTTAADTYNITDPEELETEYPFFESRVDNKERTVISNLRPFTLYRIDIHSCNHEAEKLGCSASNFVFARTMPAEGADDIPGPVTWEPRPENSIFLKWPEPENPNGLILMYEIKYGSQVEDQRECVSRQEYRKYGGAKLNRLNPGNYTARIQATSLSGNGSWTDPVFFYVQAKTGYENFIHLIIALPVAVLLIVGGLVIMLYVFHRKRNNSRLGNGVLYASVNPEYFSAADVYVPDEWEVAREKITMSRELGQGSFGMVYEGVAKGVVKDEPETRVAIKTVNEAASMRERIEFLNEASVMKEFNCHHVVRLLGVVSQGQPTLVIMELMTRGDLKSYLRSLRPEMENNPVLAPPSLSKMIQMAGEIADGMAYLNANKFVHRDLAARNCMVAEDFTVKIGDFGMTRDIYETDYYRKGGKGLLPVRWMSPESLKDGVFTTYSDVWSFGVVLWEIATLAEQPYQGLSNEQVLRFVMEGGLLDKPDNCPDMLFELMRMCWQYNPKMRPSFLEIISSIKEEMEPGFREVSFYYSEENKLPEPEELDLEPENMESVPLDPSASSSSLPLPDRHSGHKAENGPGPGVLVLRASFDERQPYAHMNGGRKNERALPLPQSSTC

In assay [1] the target is extracellular domain of IGF-IR (human) (UniProt P08069). Briefly: SPR (BIAcore) kinetic analyses. In general terms: Surface plasmon resonance follows binding to a sensor surface in real time, without labels.
The target of assay [2] is COS7 IGF-IR (old world monkey (COS7 cells)). Briefly: immunoprecipitation and Western blot on cells. For orientation: In western blotting, separated proteins are transferred to a membrane and probed.
In assay [3] the target is extracellular domain of IGF-IR (human) (UniProt P08069). Description: BIAcore competition on sensorchip-bound IGF-IR ECD.

Results are given in words; binding and its absence hold for the method and conditions named. A result given as binding can be weak or reduced; the word gives no strength.

B1: anti-IGF-IR antibody 4.17.3 (antibody, human IgG2, V domains shown)
VH: PGLVKPSETLSLTCTVSGGSISSYYWSWIRQPPGKGLEWIGYIYYSGSTNYNPSLKSRVTISVDTSKNQFSLKLSSVTAADTAVYYCARTYSSSFYYYGMDVWGQGTTVTVSS
VL: GDRVTITCRASQSISTFLNWYQQKPGKAPKLLIHVASSLQGGVPSRFSGSGSGTDFTLTISSLQPEDFATYYCQQSYNAPLTFGGGTKVEIK
For the molecule B1, the binding entry in assay [1] is “binds”.

B2: anti-IGF-IR antibody 2.12.1 (antibody, V domains shown)
VH: QAQLVESGGGLVKPGGSLRLSCAASGFTFSDYYMSWIRQAPGKGLEWVSYISSSGSTRDYADSVKGRFTISRDNAKNSLYLQMNSLRAEDTAVYYCVRDGVETTFYYYYYGMDVWGQGTTVTVSS
VL: DIQMTQSPSSLSASVGDRVTFTCRASQDIRRDLGWYQQKPGKAPKRLIYAASRLQSGVPSRFSGSGSGTEFTLTISSLQPEDFATYYCLQHNNYPRTFGQGTEVEIIR
As for B2, the binding entry in assay [1], in assay [2] and in assay [3] was “binds” in each case.

B3: anti-IGF-IR antibody 2.14.3 (antibody, human IgG2, V domains shown)
VH: GPGLVKPSETLSLTCTVSGGSISNYYWSWIRQPAGKGLEWIGRIYTSGSPNYNPSLKSRVTMSVDTSKNQFSLKLNSVTAADTAVYYCAVTIFGVVIIFDYWGQGTLVTVSS
VL: SSLSASVGDRVTFTCRASQDIRRDLGWYQQKPGKAPKRLIYAASRLQSGVPSRFSGSGSGTEFTLTISSLQPEDFATYYCLQHNNYPRTFGQGTEVEIIR
Turning to B3, the binding entry in assay [1] and in assay [3] was “binds” throughout.
